# In article PMC6734322:
# Sequences of proteins named here, by UniProt entry; tags and fusion partners are left off. A change or cut given only in a name is not applied to a line headed by its entry.
# UniProt A0A5A4HXD4: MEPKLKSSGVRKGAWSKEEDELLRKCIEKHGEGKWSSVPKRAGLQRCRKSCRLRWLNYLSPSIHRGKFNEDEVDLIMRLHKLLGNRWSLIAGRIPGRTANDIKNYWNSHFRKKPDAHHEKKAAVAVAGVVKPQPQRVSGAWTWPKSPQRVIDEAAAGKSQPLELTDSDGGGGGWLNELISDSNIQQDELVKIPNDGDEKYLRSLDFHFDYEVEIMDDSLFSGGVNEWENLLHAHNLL
# UniProt A0A218MNI8: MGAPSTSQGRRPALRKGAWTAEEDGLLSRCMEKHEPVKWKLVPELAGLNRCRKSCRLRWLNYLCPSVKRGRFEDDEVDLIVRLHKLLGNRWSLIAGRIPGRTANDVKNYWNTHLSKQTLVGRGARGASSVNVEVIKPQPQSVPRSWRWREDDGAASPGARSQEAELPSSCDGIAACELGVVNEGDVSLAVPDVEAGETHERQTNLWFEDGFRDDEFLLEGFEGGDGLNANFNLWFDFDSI
# Experiments:
# [1] = biological target: YN/MabHLH1 (Muscari armeniacum); experiment: split reporter; BiFC with split YFP (pSPYNE (R) 173 and pSPYCE (M)); transformed Agrobacterium GV3101 cultures co-infiltrated into N. benthamiana leaves, 3 d in a light incubator, laser scanning confocal microscopy
# [2] = biological target: YC/MabHLH1 (Muscari armeniacum); experiment: as above
binding [1],binding [2],Substance
binds,–,YC/MaMybA (from UniProt A0A5A4HXD4)
–,binds,YN/MaAN2 (from UniProt A0A218MNI8)

# No constants are given. Whether binding was seen depends on the method and setting. Binding seen in cells or lysates may run through a third protein. Binding calls can cover weak binding; strength is not graded here.
